# In the supplement of paper PMC10849652:
# Protein sequences, listed by entry. Tags and fused reporters are not part of them. Lines headed by an entry give the natural chain unless they say otherwise; changes in a name come on top.
# UniProt Q9NVC6: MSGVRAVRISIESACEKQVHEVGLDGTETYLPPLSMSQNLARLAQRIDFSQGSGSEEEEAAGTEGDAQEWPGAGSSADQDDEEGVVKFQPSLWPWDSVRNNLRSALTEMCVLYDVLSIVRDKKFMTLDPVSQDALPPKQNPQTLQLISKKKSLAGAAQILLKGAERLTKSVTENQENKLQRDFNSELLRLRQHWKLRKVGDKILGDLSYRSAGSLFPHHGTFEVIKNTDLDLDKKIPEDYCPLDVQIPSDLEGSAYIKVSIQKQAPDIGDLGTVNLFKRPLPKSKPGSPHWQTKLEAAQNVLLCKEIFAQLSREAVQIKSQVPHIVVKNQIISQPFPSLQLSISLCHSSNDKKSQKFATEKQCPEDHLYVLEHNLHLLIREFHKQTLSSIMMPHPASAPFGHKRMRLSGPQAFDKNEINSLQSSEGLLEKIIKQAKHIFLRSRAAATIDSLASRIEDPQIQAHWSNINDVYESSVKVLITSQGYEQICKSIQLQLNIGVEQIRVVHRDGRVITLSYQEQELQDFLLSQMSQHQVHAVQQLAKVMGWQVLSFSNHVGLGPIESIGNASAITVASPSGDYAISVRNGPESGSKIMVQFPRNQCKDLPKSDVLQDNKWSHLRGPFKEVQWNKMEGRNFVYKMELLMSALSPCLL
# UniProt P42679: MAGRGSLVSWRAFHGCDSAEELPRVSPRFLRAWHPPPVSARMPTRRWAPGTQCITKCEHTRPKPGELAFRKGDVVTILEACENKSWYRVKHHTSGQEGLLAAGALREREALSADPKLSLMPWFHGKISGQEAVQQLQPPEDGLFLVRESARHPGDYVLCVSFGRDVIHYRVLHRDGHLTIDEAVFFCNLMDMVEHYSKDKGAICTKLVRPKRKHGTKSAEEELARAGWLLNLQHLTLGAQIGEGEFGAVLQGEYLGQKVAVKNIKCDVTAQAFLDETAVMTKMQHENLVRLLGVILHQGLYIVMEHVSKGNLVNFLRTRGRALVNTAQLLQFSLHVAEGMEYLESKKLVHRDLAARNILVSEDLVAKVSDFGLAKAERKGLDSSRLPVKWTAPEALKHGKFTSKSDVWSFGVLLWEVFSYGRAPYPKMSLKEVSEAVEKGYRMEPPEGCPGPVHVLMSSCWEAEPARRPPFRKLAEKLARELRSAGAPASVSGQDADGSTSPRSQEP
# UniProt A6NJ78: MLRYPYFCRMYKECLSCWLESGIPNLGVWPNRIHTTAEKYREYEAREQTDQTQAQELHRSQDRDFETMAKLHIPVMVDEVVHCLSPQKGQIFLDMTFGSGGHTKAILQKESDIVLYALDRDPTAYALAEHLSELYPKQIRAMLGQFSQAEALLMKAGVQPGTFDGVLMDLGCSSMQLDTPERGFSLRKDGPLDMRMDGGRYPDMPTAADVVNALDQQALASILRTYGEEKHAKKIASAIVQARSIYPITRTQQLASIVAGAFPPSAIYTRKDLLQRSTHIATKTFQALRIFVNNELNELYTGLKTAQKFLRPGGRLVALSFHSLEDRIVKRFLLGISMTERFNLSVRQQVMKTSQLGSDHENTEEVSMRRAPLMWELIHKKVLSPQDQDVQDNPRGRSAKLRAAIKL
# UniProt Q93074, whole entry, looked up: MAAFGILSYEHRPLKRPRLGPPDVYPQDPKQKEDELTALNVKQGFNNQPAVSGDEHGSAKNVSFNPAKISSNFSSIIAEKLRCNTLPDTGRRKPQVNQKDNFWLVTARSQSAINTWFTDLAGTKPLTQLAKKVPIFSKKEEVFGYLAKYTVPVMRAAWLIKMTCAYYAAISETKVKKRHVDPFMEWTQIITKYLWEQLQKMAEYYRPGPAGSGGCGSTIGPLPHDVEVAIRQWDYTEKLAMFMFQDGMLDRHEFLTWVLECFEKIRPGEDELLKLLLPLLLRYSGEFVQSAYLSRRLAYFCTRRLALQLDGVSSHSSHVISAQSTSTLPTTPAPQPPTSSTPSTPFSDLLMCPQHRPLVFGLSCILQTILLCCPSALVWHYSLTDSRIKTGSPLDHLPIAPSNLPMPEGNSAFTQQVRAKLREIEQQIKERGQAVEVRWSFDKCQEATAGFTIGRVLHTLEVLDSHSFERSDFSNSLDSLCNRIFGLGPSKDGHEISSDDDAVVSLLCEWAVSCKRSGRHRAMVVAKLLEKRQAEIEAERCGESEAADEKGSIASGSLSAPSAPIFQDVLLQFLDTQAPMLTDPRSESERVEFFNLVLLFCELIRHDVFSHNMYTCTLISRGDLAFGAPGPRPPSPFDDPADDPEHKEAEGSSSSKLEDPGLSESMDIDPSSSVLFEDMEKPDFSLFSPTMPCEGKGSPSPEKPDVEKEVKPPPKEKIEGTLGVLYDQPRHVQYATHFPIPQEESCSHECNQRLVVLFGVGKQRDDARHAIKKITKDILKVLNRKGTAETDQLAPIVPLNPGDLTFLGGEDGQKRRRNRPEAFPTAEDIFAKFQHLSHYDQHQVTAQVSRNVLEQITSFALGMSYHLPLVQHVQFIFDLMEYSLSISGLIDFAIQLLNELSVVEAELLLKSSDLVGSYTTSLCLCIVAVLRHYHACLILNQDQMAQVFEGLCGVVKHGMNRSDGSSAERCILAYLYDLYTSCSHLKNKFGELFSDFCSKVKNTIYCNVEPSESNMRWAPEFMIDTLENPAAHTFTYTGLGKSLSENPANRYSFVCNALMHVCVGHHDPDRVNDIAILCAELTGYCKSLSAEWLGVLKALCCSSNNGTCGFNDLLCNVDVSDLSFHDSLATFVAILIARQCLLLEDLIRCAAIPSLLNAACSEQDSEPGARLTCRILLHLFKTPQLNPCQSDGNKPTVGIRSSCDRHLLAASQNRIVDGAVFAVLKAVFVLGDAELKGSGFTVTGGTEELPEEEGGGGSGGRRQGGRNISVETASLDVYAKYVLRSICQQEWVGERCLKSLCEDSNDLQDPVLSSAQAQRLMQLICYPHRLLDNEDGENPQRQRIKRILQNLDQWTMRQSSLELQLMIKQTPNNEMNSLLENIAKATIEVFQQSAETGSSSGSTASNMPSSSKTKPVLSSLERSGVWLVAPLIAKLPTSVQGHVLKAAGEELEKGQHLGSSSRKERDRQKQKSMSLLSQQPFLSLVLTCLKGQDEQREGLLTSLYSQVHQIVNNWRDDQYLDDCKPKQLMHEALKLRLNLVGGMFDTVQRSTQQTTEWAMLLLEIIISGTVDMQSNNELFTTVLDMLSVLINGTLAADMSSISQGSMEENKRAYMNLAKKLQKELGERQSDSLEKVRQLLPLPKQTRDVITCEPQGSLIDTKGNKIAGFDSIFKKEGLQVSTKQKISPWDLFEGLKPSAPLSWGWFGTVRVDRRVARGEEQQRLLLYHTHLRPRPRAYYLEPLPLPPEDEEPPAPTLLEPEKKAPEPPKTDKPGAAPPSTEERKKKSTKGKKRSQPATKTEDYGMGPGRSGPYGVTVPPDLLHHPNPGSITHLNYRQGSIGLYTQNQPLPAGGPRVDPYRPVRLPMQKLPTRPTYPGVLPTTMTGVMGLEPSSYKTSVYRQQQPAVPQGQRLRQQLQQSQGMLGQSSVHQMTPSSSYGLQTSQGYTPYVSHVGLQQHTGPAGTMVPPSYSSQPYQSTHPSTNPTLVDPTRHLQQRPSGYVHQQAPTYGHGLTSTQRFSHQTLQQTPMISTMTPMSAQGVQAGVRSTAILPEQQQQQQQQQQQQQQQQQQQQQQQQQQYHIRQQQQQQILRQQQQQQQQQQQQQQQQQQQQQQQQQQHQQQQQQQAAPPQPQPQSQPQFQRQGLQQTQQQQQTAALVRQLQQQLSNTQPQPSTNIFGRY
# UniProt Q6P2C8: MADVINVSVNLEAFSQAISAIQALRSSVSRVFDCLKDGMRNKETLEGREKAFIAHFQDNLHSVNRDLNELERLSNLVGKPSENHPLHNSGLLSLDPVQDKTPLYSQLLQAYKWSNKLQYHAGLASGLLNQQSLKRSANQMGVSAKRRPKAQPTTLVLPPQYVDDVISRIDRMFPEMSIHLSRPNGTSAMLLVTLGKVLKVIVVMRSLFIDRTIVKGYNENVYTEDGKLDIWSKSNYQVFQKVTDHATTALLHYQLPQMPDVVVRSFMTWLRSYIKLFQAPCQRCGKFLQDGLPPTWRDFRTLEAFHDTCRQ
# UniProt Q13503: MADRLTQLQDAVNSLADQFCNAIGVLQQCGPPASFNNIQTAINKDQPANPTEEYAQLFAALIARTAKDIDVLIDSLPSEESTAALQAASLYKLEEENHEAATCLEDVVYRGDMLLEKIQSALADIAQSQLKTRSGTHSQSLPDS
# UniProt P21741: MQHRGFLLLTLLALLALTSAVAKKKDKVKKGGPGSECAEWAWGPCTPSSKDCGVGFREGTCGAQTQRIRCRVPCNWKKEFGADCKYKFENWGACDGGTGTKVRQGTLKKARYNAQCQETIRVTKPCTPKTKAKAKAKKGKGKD
# UniProt Q06413, whole entry, looked up: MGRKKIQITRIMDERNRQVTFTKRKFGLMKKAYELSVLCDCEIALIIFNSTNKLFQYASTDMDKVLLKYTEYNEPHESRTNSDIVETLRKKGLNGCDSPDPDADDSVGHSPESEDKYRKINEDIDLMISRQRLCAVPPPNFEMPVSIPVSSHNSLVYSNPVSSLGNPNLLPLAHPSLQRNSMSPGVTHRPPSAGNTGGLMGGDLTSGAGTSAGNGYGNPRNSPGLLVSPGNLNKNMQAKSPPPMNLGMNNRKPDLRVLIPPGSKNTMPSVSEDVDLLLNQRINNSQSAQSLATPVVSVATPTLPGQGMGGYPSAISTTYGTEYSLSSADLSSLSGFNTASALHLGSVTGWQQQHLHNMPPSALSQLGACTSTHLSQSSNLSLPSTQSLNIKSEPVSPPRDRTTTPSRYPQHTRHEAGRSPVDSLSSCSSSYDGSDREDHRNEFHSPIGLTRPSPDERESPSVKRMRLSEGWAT
# UniProt Q9BUT9: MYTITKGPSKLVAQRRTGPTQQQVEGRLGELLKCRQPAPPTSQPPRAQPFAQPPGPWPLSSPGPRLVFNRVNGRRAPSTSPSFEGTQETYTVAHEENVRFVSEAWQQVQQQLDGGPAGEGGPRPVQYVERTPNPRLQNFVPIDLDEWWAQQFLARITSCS
# UniProt Q9NR56: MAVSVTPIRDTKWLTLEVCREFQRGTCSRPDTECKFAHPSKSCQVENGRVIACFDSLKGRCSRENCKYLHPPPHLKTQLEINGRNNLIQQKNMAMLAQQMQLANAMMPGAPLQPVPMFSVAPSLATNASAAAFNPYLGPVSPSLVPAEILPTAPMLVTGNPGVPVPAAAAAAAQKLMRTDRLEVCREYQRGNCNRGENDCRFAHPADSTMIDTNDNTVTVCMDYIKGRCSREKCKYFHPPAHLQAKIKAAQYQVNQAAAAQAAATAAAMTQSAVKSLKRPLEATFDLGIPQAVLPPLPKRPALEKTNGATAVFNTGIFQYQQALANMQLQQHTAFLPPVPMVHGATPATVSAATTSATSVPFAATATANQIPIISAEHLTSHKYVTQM
# UniProt P48740: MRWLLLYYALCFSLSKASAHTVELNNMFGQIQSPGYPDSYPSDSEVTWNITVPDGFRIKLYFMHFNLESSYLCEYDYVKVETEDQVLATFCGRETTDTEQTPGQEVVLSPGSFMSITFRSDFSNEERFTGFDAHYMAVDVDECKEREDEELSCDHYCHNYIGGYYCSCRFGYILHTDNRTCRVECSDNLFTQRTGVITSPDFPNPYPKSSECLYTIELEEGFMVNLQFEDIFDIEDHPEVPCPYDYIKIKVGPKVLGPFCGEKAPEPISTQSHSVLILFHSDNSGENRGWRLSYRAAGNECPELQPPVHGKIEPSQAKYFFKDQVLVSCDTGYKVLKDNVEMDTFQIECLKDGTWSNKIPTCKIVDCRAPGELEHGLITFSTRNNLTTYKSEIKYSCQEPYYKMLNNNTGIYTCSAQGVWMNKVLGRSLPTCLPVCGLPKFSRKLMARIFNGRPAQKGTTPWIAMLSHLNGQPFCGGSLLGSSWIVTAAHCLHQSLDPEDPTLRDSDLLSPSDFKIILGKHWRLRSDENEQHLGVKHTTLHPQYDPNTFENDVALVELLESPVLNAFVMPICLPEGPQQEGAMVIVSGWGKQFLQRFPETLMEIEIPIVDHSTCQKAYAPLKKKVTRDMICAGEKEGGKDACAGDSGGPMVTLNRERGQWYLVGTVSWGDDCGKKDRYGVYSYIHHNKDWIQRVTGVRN
# UniProt O14770: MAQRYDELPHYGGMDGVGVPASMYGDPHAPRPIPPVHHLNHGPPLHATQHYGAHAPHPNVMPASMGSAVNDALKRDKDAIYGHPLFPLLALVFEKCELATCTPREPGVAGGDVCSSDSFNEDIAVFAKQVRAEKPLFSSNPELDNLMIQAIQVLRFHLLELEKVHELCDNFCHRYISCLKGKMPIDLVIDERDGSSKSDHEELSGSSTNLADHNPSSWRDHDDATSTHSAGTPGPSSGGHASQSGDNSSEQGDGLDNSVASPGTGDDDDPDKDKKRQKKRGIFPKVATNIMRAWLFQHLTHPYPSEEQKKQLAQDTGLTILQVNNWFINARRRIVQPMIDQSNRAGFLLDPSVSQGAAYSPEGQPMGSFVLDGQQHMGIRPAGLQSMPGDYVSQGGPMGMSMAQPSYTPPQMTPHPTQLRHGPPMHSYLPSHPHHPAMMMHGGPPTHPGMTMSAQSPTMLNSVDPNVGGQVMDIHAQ
# This is one part of the list.
# What was measured:
# Assay in all cases: log2 fold change, soluble protein after heating vs DMSO (PISA); higher = thermal stabilisation; K562 cells, 10 uM, 30 min; active = over 0.2 and 3.5 SD of the protein, either way, in both replicates (recomputed)
# [1] = compound: CC1=C(SC2=C1C(=N[C@H](C3=NN=C(N32)C)CC(=O)N)C4=CC=C(C=C4)Cl)C
# Method in brief: (§1)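 K562 cells at 2×10^6 cells/mL were treated with 10 μM compound for 30 min. Aliquots were heated for 3 min across 48°C-58°C, pooled, and extracted in PBS with 0.5% NP-40 at 4°C; soluble protein was the supernatant after 21,000xg for 90 min. Soluble protein was quantified by TMTpro 16plex LC-MS/MS with channel sums equalised, and reported as log2 fold change in thermal stability against DMSO controls, with values from duplicates.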
# [2] = compound: c1ccc([C@@H]2C[C@H]2NC2CCNCC2)cc1
# Method in brief: as §1
# [3] = compound: CC1=C2C(=CC=C1)N=C(N(C2=O)C3=CC=CC=C3C)CN4C=NC5=C(N=CN=C54)N
# Method in brief: as §1
# [4] = compound: Cc1sc2c(c1C)C(c1ccc(Cl)cc1)=N[C@@H](CC(=O)OC(C)(C)C)c1nnc(C)n1-2
# Method in brief: as §1
# [5] = compound: C1=CC=C(C=C1)[C@H](COC2=CC3=C(C=C2)NC(=O)N3)NC(=O)C4=CC=CN(C4=O)CC5=CC(=C(C=C5)F)F
# Method in brief: as §1
Target,log2 fold change [1],log2 fold change [2],log2 fold change [3],log2 fold change [4],log2 fold change [5]
MFSD9 (UniProt Q8NBP5),inactive: -0.057,inactive: 0.05,,,
MED17 (UniProt Q9NVC6),inactive: -0.031,inactive: -0.011,inactive: 0.038,inactive: 0.032,
MED26 (UniProt O95402),inactive: -0.046,inactive: 0.078,inactive: 0.153,,
MATR3 (UniProt P43243),,,inactive: 0.078,inactive: -0.057,inactive: -0.014
MEF2A (UniProt Q02078),,,,inactive: 0.089,
MAU2 (UniProt Q9Y6X3),,,inactive: 0.215,inactive: -0.031,
MED11 (UniProt Q9P086),,,,inactive: 0.007,
MATK isoform 2 (UniProt P42679),inactive: 0.218,inactive: -0.292,inactive: 0.145,,
METTL15 (UniProt A6NJ78),,,,inactive: 0.087,inactive: -0.172
MED12 isoform 2 (UniProt Q93074),,,,inactive: -0.434,inactive: -0.002
MED13L (UniProt Q71F56),inactive: -0.133,inactive: -0.029,inactive: 0.104,,
METTL2B (UniProt Q6P1Q9),inactive: -0.07,inactive: 0.021,inactive: 0.03,,
MEF2A isoform 2 (UniProt Q02078),inactive: 0.015,inactive: 0.08,inactive: -0.154,,
MED27 (UniProt Q6P2C8),inactive: 0.005,inactive: 0.04,,,inactive: 0.087
MFSD12 isoform 3 (UniProt Q6NUT3),inactive: 0.026,inactive: 0.135,,inactive: -0.129,
MED28 (UniProt Q9H204),inactive: 0.144,inactive: -0.026,,inactive: -0.151,inactive: 0.076
MED21 (UniProt Q13503),inactive: -0.035,inactive: -0.035,,inactive: -0.359,
MBTPS2 (UniProt O43462),inactive: -0.213,inactive: 0.145,inactive: 0.145,inactive: -0.246,
MDK (UniProt P21741),inactive: -0.408,inactive: 0.151,,inactive: 0.255,inactive: -0.045
MEF2C isoform 2 (UniProt Q06413),,,,inactive: -0.198,
MCRIP2 (UniProt Q9BUT9),inactive: 0.145,inactive: -0.103,,inactive: -0.045,inactive: -0.05
MEGF10 (UniProt Q96KG7),,,,inactive: 0.197,
MBNL1 isoform 5 (UniProt Q9NR56),,,,inactive: -0.278,inactive: 0.067
MEX3B (UniProt Q6ZN04),,,,inactive: 0.111,inactive: 0.137
MASP1 isoform 2 (UniProt P48740),inactive: -0.165,inactive: -0.206,,,
MEGF8 (UniProt Q7Z7M0),,,,inactive: -0.149,
MFSD14B (UniProt Q5SR56),inactive: 0.06,inactive: 0.12,inactive: -0.086,inactive: 0.086,
METTL17 isoform 3 (UniProt Q9H7H0),inactive: -0.173,inactive: 0.091,,,
MEIS2 (UniProt O14770),inactive: 0.162,inactive: -0.018,,,inactive: 0.019

# Reprinted at random: 2 entries already listed, in no set order.
Target,log2 fold change [1],log2 fold change [2],log2 fold change [3],log2 fold change [4],log2 fold change [5]
MBNL1 isoform 5 (UniProt Q9NR56),,,,inactive: -0.278,inactive: 0.067
MATK isoform 2 (UniProt P42679),inactive: 0.218,inactive: -0.292,inactive: 0.145,,
